Data reported in PubChem BioAssay AID2551 (National Center for Advancing Translational Sciences (NCATS), 2010).
The campaign covered roughly 310,000 compounds. About 17,000 (5.5%) were called active. The shares of active, inactive and inconclusive entries below differ from those in the screen. Calls come from the whole dose curve; as a rule, active = well fitted inhibition curve with a large enough effect; inconclusive = small, poorly fitted or top-dose-only effect, or effect the other way; inactive = no such curve, though single readings can be large or run the other way. Potencies of inconclusive entries are doubtful fits and often do not repeat.

Sequences of proteins named here, by UniProt entry; tags and fusion partners are left off. A change or cut given only in a name is not applied to a line headed by its entry.
UniProt P51450: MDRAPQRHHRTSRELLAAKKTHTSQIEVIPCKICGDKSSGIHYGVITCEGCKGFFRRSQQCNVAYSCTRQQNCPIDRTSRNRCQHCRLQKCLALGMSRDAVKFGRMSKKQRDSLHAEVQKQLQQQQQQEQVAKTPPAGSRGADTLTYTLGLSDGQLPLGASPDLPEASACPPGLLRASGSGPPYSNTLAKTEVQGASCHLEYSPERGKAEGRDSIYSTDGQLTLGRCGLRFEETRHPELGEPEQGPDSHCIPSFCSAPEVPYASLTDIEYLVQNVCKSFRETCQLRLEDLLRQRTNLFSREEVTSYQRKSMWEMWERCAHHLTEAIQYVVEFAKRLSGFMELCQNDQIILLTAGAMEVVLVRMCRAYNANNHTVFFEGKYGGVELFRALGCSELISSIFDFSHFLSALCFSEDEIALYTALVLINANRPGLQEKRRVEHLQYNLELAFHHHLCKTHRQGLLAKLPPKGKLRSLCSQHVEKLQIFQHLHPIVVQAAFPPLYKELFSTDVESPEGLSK

target: Nuclear receptor ROR-gamma (Mus musculus) (UniProt P51450); experiment: qHTS for inhibitors of ROR gamma transcriptional activity; settings: Drosophila S2 Gal4-RORgamma UAS-luciferase reporter, 20 h; series mostly up to 53.6 µM; note: nearly all actives have a fitted effect of over 60% in size
Outline: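 Compounds are pin-transferred onto Drosophila Schneider cells expressing a copper-inducible Gal4–ROR gamma transactivation domain fusion. After 1 hr, copper sulfate is added to 700 uM final; luciferase is read 20 hr later.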
Potency is the fitted concentration of half-maximal effect.

Potency, inconclusive:
COc1ccc(NC(=O)CSc2ccc3nnc(-c4ccccn4)n3n2)cc1OC 35.5 µM [inhibitor, single point], Cc1cc(C)nc(Nc2n[nH]c(-c3ccccc3C)n2)n1 11.2 µM [inhibitor, single point], O=C(CSc1nc(Nc2ccccc2)nc(N2CCOCC2)n1)Nc1cccc([N+](=O)[O-])c1 22.4 µM [activator, single point], Cc1ccccc1NC(=S)NCC1CCN(C(C)c2ccccc2)C1 (stereo not given) 17.8 µM [inhibitor, single point], CCOCCCNC(=S)N(Cc1ccco1)Cc1cc2cc3c(cc2[nH]c1=O)OCCO3 14.1 µM [activator, partial curve], COc1cccc(OC)c1C(=O)OCC(=O)NC(=O)NCc1ccccc1 35.5 µM [activator, single point], O=C(COC(=O)C12CC3CC(CC(C3)C1)C2)Nc1nc2c(F)c(F)c(F)cc2s1 12.6 µM [activator, partial curve], O=C(Cc1ccc([N+](=O)[O-])cc1)Nc1cc(C(F)(F)F)cc(C(F)(F)F)c1 4.47 µM [activator, partial curve], CNc1ccc(/C=C/C(=O)c2ccc3c(c2)OCCO3)cc1[N+](=O)[O-] 28.2 µM [activator, single point], CCc1ccc(NC(=O)C(NS(=O)(=O)c2cccc3nsnc23)c2ccccc2)cc1 (stereo not given) 31.6 µM [activator, single point], Cc1ccc(NC(=O)c2cc3ccccc3oc2=O)cc1S(=O)(=O)N(C)C 0.02 µM [inhibitor, full curve], CCc1nc(N2CCN(C(C)=O)CC2)c2c3c(sc2n1)CC(C(C)(C)C)CC3 (stereo not given) 35.5 µM [inhibitor, single point]

Potency, inactive:
COc1ccc(CCNC(=O)c2cccnc2)cc1, Cn1nnnc1SCc1ccc(C(=O)Nc2ccc(Br)cc2)cc1, C#CCOc1ccc(/C=C2/C(=O)ON=C2C)cc1OCC, COc1ccc(C2CC(C(F)(F)F)n3nc(C(=O)NCc4cn(C)nc4C)c(Cl)c3N2)cc1 (stereo not given), Cc1ccccc1CSCCC(=O)NCCc1ccccc1

Potency, active:
Cc1ccc(O)c2ncccc12 5.01 µM, N/C(=N\OC(=O)c1ccccc1Cl)c1ccccn1 6.31 µM, O=C(/C=C/c1cn(-c2ccccc2)nc1-c1cccnc1)c1ccco1 6.31 µM
